The supplement of paper PMC6411743
± gives the standard deviation of the averaged measurements. The list shows a part of the results.

Sequences of proteins named here, by UniProt entry; tags and fusion partners are left off. A change or cut given only in a name is not applied to a line headed by its entry.
UniProt O00214: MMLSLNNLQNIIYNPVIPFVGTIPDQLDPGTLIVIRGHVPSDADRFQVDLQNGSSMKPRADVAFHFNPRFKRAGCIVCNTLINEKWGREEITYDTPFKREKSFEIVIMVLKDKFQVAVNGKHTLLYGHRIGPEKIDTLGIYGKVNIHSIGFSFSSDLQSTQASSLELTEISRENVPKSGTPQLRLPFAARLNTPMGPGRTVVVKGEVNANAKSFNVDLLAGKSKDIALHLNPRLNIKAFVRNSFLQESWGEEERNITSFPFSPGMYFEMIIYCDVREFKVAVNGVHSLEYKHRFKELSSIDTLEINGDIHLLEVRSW
UniProt Q9Y5J7: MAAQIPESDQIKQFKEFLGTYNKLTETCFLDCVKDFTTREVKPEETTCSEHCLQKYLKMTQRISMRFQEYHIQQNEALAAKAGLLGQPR
UniProt Q9UI26: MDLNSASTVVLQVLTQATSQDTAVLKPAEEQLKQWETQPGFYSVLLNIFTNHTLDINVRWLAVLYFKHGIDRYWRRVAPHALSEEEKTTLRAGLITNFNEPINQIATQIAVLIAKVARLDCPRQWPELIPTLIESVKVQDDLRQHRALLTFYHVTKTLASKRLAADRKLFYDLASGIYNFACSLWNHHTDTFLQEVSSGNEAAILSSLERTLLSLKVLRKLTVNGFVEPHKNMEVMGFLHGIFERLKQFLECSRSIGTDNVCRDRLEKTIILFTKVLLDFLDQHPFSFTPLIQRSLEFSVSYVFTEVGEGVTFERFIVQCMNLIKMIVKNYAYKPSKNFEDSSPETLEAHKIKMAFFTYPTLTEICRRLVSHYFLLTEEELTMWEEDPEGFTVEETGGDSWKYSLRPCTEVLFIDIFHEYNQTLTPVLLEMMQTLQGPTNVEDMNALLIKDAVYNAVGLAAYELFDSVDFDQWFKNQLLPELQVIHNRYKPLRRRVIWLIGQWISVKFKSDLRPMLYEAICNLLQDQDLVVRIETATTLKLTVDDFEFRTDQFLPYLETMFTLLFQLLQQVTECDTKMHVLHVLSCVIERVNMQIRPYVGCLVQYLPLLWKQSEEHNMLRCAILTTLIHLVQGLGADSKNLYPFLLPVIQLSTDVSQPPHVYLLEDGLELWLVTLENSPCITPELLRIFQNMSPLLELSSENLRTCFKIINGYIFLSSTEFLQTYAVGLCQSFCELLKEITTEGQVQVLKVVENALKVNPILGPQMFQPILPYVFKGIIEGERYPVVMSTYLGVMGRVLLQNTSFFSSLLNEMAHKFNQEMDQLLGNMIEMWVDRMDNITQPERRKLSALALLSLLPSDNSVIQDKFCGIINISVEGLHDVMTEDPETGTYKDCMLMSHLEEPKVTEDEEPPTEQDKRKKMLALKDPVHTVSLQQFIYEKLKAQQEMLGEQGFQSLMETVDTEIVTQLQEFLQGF
UniProt P19404, whole entry: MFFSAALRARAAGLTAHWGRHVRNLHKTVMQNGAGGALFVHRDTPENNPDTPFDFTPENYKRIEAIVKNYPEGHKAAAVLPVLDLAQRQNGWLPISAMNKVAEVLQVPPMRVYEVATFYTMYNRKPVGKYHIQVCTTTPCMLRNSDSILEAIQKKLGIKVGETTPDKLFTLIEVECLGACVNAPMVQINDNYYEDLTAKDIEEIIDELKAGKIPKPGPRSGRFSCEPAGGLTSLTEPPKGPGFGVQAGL
UniProt P54105: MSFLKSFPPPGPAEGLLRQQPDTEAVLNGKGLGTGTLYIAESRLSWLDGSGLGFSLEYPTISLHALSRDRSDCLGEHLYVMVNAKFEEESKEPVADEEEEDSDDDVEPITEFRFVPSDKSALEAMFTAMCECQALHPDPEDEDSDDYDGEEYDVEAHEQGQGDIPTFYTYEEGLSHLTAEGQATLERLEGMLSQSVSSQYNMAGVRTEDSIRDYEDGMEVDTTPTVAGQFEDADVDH
UniProt Q9UQV4: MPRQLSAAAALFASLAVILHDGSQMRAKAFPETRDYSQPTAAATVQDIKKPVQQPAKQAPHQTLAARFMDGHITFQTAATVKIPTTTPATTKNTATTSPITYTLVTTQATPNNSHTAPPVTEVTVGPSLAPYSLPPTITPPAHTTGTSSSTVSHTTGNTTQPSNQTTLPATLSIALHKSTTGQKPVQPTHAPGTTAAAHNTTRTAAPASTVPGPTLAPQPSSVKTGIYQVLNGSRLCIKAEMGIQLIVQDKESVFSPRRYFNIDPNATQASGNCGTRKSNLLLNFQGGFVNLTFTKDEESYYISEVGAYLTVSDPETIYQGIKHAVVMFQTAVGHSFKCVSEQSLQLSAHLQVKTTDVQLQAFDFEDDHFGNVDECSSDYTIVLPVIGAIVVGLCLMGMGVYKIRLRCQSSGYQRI
UniProt P08962, whole entry: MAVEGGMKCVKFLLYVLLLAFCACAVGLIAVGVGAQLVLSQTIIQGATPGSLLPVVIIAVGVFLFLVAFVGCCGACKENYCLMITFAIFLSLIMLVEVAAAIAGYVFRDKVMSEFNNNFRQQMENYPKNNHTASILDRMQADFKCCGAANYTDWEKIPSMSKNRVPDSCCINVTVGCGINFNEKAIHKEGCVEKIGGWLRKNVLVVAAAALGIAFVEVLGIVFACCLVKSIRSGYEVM
UniProt Q9Y485, whole entry: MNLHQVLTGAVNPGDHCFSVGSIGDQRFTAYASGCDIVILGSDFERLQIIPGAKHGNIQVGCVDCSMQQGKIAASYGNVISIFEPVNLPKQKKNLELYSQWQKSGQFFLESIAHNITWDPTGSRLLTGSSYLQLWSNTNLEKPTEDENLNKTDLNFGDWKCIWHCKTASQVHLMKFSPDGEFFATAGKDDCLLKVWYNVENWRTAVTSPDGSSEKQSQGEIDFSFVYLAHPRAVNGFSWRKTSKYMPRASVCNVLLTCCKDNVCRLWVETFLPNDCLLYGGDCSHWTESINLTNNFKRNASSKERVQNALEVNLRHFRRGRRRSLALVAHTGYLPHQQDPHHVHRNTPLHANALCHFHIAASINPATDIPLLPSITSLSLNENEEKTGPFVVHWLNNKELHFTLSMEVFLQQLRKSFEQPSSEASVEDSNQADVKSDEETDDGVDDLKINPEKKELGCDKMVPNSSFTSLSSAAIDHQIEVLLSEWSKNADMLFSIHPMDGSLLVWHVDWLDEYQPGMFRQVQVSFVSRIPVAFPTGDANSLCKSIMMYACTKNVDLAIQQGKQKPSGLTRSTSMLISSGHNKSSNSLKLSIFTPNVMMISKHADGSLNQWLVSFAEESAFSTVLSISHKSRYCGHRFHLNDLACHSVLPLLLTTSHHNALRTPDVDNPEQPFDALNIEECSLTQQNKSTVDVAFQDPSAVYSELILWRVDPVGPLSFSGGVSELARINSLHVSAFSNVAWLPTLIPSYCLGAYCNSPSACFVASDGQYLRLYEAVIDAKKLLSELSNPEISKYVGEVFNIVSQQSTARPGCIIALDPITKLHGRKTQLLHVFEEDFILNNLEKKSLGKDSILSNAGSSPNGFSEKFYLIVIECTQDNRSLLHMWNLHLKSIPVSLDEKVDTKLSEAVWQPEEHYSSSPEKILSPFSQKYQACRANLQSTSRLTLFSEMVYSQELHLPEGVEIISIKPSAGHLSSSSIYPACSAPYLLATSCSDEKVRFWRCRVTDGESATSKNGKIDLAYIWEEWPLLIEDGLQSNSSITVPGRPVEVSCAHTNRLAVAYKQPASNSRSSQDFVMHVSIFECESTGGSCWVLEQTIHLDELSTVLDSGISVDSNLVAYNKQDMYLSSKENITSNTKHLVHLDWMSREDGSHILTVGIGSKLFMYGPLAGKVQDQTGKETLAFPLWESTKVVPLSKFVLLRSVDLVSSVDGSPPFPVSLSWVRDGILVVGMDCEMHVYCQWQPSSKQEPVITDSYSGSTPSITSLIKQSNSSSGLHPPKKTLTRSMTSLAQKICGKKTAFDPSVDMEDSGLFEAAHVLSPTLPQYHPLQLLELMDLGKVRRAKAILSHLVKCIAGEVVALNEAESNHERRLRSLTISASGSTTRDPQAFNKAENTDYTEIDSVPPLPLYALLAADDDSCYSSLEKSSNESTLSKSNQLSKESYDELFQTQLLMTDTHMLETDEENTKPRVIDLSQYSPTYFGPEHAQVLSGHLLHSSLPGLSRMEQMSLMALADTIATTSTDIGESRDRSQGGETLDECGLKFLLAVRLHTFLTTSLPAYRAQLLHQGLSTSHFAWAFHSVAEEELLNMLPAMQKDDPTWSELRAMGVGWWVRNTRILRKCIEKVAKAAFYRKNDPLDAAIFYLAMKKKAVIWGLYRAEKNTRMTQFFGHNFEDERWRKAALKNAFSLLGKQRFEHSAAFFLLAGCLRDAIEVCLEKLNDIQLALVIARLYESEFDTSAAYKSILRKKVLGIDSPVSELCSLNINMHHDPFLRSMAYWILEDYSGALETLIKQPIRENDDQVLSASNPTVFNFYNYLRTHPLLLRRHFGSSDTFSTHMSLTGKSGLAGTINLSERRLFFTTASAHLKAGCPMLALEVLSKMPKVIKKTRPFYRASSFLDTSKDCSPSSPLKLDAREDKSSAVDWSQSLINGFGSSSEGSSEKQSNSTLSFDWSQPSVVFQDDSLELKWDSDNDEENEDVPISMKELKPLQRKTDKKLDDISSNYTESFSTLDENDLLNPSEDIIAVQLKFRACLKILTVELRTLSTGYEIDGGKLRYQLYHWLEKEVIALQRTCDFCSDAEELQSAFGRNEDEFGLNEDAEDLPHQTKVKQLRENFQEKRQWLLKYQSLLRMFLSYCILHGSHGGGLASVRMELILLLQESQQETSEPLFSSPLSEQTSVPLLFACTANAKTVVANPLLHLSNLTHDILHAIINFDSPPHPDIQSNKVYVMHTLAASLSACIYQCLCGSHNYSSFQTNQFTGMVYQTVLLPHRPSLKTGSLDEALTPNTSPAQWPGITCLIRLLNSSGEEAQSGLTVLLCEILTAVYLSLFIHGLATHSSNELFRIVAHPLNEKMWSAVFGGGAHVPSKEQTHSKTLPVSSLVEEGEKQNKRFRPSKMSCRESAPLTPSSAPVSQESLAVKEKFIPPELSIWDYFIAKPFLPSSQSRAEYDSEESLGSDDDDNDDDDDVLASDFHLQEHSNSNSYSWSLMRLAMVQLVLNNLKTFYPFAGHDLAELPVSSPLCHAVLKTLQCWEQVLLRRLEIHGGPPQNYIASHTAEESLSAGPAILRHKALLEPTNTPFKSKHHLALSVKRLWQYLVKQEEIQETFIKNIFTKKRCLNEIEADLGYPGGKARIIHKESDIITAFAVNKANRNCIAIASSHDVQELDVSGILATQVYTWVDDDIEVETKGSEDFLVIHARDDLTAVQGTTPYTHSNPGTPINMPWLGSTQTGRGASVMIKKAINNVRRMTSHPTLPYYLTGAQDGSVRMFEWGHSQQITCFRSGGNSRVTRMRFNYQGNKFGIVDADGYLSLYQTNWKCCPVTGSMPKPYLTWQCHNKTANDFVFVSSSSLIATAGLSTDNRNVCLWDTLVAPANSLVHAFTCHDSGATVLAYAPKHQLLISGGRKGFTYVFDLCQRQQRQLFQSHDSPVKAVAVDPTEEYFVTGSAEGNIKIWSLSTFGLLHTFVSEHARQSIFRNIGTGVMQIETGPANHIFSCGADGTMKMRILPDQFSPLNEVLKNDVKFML

What follows are targets tested with Nc1nc2c(ncn2[C@@H]2O[C@H](COP(=O)(O)OP(=O)(O)OP(=O)(O)O)[C@@H](O)[C@H]2O)c(=O)[nH]1 [guanosine triphosphate] (assay: NP40-soluble protein abundance relative to vehicle (solubility fold change) (ratio); higher = more soluble protein in presence of GTP). Settings: concentration: 6mM.
Method in brief: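 Data come from three independent experiments in which Dounce-homogenised Jurkat crude lysate was treated at eight concentrations from 0.1 to 10 mM. Treatment ran 10 min at room temperature and then 3 min at 37 °C, after which 0.8% NP40 and benzonase were added for 60 min at 4 °C before ultracentrifugation. The supernatant underwent TMT labelling and LC-MS/MS, and vsn-normalised intensities were expressed as fold change against the detergent-processed vehicle in each replicate.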

Row | Target | NP40-soluble protein abundance
1 | F5H365 and related entries (UniProt Q15436) | 0.963 ± 0.054
2 | F6V2D4 and related entries (UniProt O00214) | 0.905 ± 0.065
3 | F2Z2W7 and related entries (UniProt Q8IZ69) | 1.13 ± 0.03
4 | E7ERS3 and related entries (UniProt Q86VM9) | 1.29 ± 0.047
5 | G3V502 and related entries (UniProt Q9Y5J7) | 1.01 ± 0.12
6 | F8WDV0 and related entries (UniProt Q9UI26) | 1.02 ± 0.078
7 | G3XAI9 and related entries (UniProt Q5BKY9) | 0.803 ± 0.13
8 | UniProt E9PSI1 | 1.01 ± 0.1
9 | F8WCU9 and related entries (UniProt Q68CP9) | 1.4 ± 0.18
10 | F8VZA0 and related entries (UniProt Q9H0K6) | 1 ± 0.037
11 | E9PK57 and related entries (UniProt O94830) | 0.9946 ± 0.0036
12 | E9PHH9 and related entries (UniProt Q9BUI4) | 1.02 ± 0.1
13 | F8VQE1 and related entries (UniProt Q9UHB6) | 1.71 ± 0.067
14 | E9PI30 and related entries (UniProt P56202) | 0.988 ± 0.12
15 | F5GZ90 and related entries (UniProt Q9NZJ0) | 0.991 ± 0.11
16 | F8W8G5 and related entries (UniProt P10242) | 1.12 ± 0.1
17 | E7EWW0 and related entries (UniProt Q7Z3J2) | 1.03 ± 0.051
18 | E7EPD8 and related entries (UniProt Q9NUW8) | 0.967 ± 0.024
19 | E9PEL3 and related entries (UniProt P61513) | 0.858 ± 0.19

Same assay, conditions: concentration: 8mM

Row | Target | NP40-soluble protein abundance
20 | E9PCW1 and related entries (UniProt O95249) | 0.945 ± 0.052
21 | E7EPT4 and related entries (UniProt P19404) | 1.14 ± 0.15
22 | F5GZZ0 and related entries (UniProt Q6NS38) | 0.985 ± 0.04
23 | E7ESS2 and related entries (UniProt O95819) | 1.01 ± 0.054
24 | F5H2R5 and related entries (UniProt P52566) | 0.87 ± 0.067
25 | E9PMI6 and related entries (UniProt P54105) | 0.991 ± 0.038
26 | F5H1M8 and related entries (UniProt Q96MG8) | 0.831 ± 0.028
27 | E7ESG2 and related entries (UniProt Q9HAW4) | 1.09 ± 0.032
28 | E7ETP9 and related entries (UniProt Q9UQV4) | 0.818 ± 0.088
29 | E9PCG9 and related entries (UniProt Q02338) | 0.965 ± 0.13
30 | F8VV56 and related entries (UniProt P08962) | 0.861 ± 0.1
31 | E9PGC0 and related entries (UniProt P20936) | 0.961 ± 0.048
32 | F5H269 and related entries (UniProt Q9Y485) | 1.12 ± 0.15
33 | F5GZG1 and related entries (UniProt P61224) | 0.885 ± 0.15
34 | F5GWJ6 and related entries (UniProt Q9H3J6) | 1.24 ± 0.032
35 | E9PH64 and related entries (UniProt Q9Y6M9) | 1.23 ± 0.11
36 | F8W8C2 and related entries (UniProt Q9HBM0) | 0.954 ± 0.018
37 | E9PKV2 and related entries (UniProt Q9NRX2) | 1.31 ± 0.39
38 | F5H365 and related entries (UniProt Q15436) | 0.93 ± 0.038

Row | Target | NP40-soluble protein abundance
39 | F6V2D4 and related entries (UniProt O00214) | 0.96 ± 0.05
40 | F2Z2W7 and related entries (UniProt Q8IZ69) | 1.18 ± 0.018
41 | E7ERS3 and related entries (UniProt Q86VM9) | 1.37 ± 0.12
42 | G3V502 and related entries (UniProt Q9Y5J7) | 1.08 ± 0.05
43 | F8WDV0 and related entries (UniProt Q9UI26) | 0.984 ± 0.077
44 | G3XAI9 and related entries (UniProt Q5BKY9) | 0.803 ± 0.1
45 | UniProt E9PSI1 | 1.06 ± 0.043
46 | F8WCU9 and related entries (UniProt Q68CP9) | 1.46 ± 0.24
47 | F8VZA0 and related entries (UniProt Q9H0K6) | 0.991 ± 0.071
48 | E9PK57 and related entries (UniProt O94830) | 0.987 ± 0.026
49 | E9PHH9 and related entries (UniProt Q9BUI4) | 1.04 ± 0.044
50 | F8VQE1 and related entries (UniProt Q9UHB6) | 1.95 ± 0.29
51 | E9PI30 and related entries (UniProt P56202) | 1.02 ± 0.084
52 | F5GZ90 and related entries (UniProt Q9NZJ0) | 0.981 ± 0.053
53 | F8W8G5 and related entries (UniProt P10242) | 1.15 ± 0.044
54 | E7EWW0 and related entries (UniProt Q7Z3J2) | 1.03 ± 0.11
55 | E7EPD8 and related entries (UniProt Q9NUW8) | 0.983 ± 0.049
56 | E9PEL3 and related entries (UniProt P61513) | 0.574 ± 0.05
